Measurements published in PMC10970474.
Results are given in words; binding and its absence hold for the method and conditions named. In cells and extracts the contact can be indirect.

Chains of the proteins cited; added tags and fusions are not shown.
UniProt Q14145: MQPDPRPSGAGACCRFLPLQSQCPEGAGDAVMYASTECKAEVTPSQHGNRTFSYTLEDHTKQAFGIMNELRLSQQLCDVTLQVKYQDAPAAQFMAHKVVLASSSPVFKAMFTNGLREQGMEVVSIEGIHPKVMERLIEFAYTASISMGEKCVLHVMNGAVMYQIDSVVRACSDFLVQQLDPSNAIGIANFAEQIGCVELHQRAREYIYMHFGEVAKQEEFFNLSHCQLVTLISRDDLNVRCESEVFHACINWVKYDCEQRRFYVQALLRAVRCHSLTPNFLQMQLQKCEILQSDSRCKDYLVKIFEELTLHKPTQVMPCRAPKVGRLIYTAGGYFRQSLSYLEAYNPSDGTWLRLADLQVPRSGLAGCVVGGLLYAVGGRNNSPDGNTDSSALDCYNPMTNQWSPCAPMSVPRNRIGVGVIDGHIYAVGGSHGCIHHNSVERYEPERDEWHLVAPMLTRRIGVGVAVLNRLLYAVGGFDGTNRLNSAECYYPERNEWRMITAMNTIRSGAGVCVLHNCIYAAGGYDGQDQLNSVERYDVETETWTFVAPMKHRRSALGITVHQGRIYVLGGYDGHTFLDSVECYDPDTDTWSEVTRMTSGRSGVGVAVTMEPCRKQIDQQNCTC

Target: KEAP1-FLAG (human) (UniProt Q14145)
Assay: co-IP

- binding: no binding
Substance: TRIM21-HA (Tripartite motif-containing protein 21) (from UniProt P19474-1 1-475)
